No constants are given. Whether binding was seen depends on the method and setting. In cells and extracts the contact can be indirect. Some binding calls cover weakened binding; strength is not graded here.

Chains of the proteins cited; added tags and fusions are not shown.
UniProt P04150: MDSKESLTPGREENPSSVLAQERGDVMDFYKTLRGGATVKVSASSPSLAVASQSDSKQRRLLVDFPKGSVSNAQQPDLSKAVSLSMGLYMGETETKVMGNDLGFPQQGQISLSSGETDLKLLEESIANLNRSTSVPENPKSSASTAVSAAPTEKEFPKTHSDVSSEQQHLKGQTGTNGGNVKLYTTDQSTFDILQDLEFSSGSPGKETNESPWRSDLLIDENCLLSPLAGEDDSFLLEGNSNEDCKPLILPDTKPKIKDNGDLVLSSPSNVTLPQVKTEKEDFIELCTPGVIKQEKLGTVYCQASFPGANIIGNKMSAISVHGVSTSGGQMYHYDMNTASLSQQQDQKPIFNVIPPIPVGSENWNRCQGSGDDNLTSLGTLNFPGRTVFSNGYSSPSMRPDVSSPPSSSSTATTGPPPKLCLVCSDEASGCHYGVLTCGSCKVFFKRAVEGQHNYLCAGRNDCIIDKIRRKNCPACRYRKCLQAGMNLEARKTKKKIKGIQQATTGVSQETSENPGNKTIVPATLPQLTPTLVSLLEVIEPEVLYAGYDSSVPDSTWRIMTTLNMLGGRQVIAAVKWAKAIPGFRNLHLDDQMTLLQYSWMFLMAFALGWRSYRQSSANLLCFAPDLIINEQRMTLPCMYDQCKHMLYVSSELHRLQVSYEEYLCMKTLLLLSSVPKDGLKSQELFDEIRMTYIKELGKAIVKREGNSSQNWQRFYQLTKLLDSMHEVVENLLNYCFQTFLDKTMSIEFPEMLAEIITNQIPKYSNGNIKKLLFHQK
UniProt P08235: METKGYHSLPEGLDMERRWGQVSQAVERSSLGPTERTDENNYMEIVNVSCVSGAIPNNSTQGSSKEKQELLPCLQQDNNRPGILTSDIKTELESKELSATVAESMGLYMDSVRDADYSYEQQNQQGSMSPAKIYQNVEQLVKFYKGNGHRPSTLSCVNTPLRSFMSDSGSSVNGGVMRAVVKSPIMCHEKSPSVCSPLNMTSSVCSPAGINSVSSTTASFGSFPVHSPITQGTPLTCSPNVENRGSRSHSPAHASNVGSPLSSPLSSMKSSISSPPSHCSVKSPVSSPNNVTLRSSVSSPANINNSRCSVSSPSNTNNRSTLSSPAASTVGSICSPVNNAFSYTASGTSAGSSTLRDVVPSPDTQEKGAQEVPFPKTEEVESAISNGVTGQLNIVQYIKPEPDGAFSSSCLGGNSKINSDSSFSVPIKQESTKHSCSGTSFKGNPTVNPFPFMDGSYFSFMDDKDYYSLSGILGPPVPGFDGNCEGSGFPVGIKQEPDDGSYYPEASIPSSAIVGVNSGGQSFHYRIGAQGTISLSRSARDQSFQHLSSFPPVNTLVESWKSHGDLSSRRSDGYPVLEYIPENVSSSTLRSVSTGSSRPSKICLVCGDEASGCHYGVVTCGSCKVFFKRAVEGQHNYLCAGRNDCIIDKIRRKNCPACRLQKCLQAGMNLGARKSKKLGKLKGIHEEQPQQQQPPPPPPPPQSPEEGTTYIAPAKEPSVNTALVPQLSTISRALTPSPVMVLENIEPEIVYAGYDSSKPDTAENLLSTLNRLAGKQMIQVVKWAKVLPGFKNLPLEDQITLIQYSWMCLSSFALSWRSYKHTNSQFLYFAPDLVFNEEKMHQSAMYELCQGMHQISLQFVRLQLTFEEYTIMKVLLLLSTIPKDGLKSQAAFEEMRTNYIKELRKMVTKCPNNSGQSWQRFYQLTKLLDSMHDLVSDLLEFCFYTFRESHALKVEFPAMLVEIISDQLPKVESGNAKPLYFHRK

This note sets out measurements from article doi:10.1101/2023.05.10.540157 (bioRxiv, 2023).

The target in test [1] is endogenous glucocorticoid receptor (GR) (human (endogenous in MM1.S and OPM-2)) (UniProt P04150). Put plainly: co-IP.
Test [2] has as its target mineralocorticoid receptor (MR), NanoBiT fusion LgBiT-MR (UniProt P08235). Put plainly: split reporter.

Take “endogenous mineralocorticoid receptor (MR) (from UniProt P08235 1-984)”: in test [1], the binding result is listed as “binds”.
Consider “mineralocorticoid receptor (MR), NanoBiT fusion LgBiT-MR (from UniProt P08235 1-984)”, for which, in test [2], the binding result is reported as “binds”.
